Data source: PubChem BioAssay AID1224826 (NIAID, 2016)
Shown is one part, drawn at random, of about 17,000 deposited reagents. About 1,110 of them (6.6%) were called active. 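Active means lowered or raised reporter signal; replicate intensities are raw and not normalised per plate.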 Not all columns of the deposit are shown.

- Screen: 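Genes that change LPS-induced Tnf promoter activity in mouse macrophages when knocked down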 (primary screen)
- Cell system: RAW264.7 G9 macrophages from mouse bearing reporters for p65 (GFP) and the Tnf promoter (mCherry)
- Reagents: siRNA pool against mouse genes, 100 nM
- Time to read-out: 16 h of LPS stimulation, after 2 days of siRNA transfection
- Challenge: bacterial lipopolysaccharide (Salmonella minnesota R595), 10 ng/ml
- Measurement: 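Imaged Tnf reporter mCherry in nuclei, minus background, normalised per plate to the median and expressed as robust z-scores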
- Scale: Tnf reporter robust z-score: higher = stronger Tnf promoter reporter signal after LPS
- Hit rule: 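Called active when robust z-score is at most -1.3, matching the median of the Tlr4 knock-down control, or over 3; control wells and wells with under 50 cells never active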
- Meaning of the calls: active = Tnf reporter clearly lowered or raised; inactive = no clear change in Tnf reporter

Kyat1 scored Tnf reporter robust z-score -0.61; fewer than 50 cells in well enough cells in well; inactive.
Silencing of Kmt2b came out at: Tnf reporter robust z-score -0.81; fewer than 50 cells in well enough cells in well; inactive.
With knock-down of Serpina3k, the screen gave Tnf reporter robust z-score 1.17; fewer than 50 cells in well enough cells in well; inactive.
With knock-down of Zfp628 the results were Tnf reporter robust z-score -0.16; fewer than 50 cells in well enough cells in well; inactive.
Slc26a8 showed Tnf reporter robust z-score 0.41; fewer than 50 cells in well enough cells in well; inactive.
With knock-down of Ccser1, the screen gave Tnf reporter robust z-score 2.29; fewer than 50 cells in well enough cells in well; inactive.
Knock-down of Cdca4 came out at: Tnf reporter robust z-score 0.23; fewer than 50 cells in well enough cells in well; inactive.
Silencing of Uxs1 came out at: Tnf reporter robust z-score -0.18; fewer than 50 cells in well enough cells in well; inactive.
Depletion of Tbx3 resulted in: Tnf reporter robust z-score -0.06; fewer than 50 cells in well enough cells in well; inactive.
With knock-down of Foxa3, the record shows Tnf reporter robust z-score 0.19; fewer than 50 cells in well enough cells in well; inactive.
Against Sox30 the deposit lists Tnf reporter robust z-score 0.18; fewer than 50 cells in well enough cells in well; inactive.
Sftpa1 gave Tnf reporter robust z-score -0.53; fewer than 50 cells in well enough cells in well; inactive.
Knock-down of Gnrhr came out at: Tnf reporter robust z-score -0.52; fewer than 50 cells in well enough cells in well; inactive.
Depletion of Ptp4a3 came out at: Tnf reporter robust z-score -0.48; fewer than 50 cells in well enough cells in well; inactive.
With knock-down of Zfp639 the results were Tnf reporter robust z-score 0.15; fewer than 50 cells in well enough cells in well; inactive.
After knock-down of Med25, the record shows Tnf reporter robust z-score -1.21; fewer than 50 cells in well enough cells in well; inactive.
Rpl21 showed Tnf reporter robust z-score -0.19; fewer than 50 cells in well enough cells in well; inactive.
Against Abhd5 the deposit lists Tnf reporter robust z-score 1.03; fewer than 50 cells in well enough cells in well; inactive.
Dgki gave Tnf reporter robust z-score -1.05; fewer than 50 cells in well enough cells in well; inactive.
Or10v1 scored Tnf reporter robust z-score -1.03; fewer than 50 cells in well enough cells in well; inactive.
With knock-down of Mpdz the results were Tnf reporter robust z-score 1.7; fewer than 50 cells in well enough cells in well; inactive.
